These are yes or no findings as the source states them, for the method shown.

Results on two molecules are retold here after US20210238262A1.

This assay concerns the target Isolated ZIKV E domain III (303-404) (Zika virus strain PRVABC59). Put plainly: ELISA on isolated ZIKV E DIII. (In an ELISA, binding on a coated surface is turned into a signal by an enzyme label.)

B1: MZ1 (antibody, V domains shown)
VH: QVQLQESGPGLVKSSETLSLSCTVSGASISNFYWSWVRQPPGKGLEWMGSIYYTGTITYNPSLKSRLTMSVDTSKNQFSLKLNSVTAADTAVYSCAGLDRFNWNDEGDCWGQGTLVTVFS
VL: QSVLTQPPSASGTPGQRVTISCSGSRSNLGRNTVNWYQQLPGVAPKLLIYSNNRRPSGVPDRFSGSKSDTSASLAISGLQSEDEADYFCAAWDDSLNGLYVFGTGTKVTVLG
On to B1, for which the binding result is given as “no binding (tested: titrated from 20 µg/ml)”.

B2: MZ24 (antibody, V domains shown)
VH: QVQLQESGPGLVKSSETLSLSCTVSGASISSYYWSWVRQSPGKGLEWMGSIYYTGTTTYNPSLKSRLTISVDTSKNQFSLKLNSVTAADTAVYSCAGLDRFNWNDEGDCWGQGTLVTVFS
VL: QSVLTQPPSASGTPGQRVTISCSGSRSNLGRNTVNWYQQLPGVAPKLLIYSNSRRPSGVPDRFSGSKSDTSASLAISGLQSEDEADYYCAAWDDSLNGLYVFGTGTSVTVLG
Turning to B2, the binding entry is given as “no binding (tested: titrated from 20 µg/ml)”.
